Some of the results follow. Further columns of the screen follow, without active or inactive calls. Most of these compounds were active or inconclusive in the main read-out, so they are no random draw. Potencies come from curve fits of mixed quality, noted in brackets.
Experiment: qHTS Assay for Lipid Storage Modulators in Drosophila S3 Cells;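 as to cell number change: cells counted by Cell Tracker Red CMTPX staining in the red channel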
Conditions: BODIPY lipid droplet fluorescence, 18-24 h; for cell number change: measured here: cell count max response, cells fed with added oleic acid
How it was run: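 Drosophila S3 cells got compounds at several concentrations plus oleic acid (400 uM solution). Laser-scanning cytometry with 488 nm excitation read lipid droplets at 500-530 nm and cells at 575-640 nm. Percent activity was relative to 20 uM Triacsin C.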

[1] = measured here: cell number channel AC50, cells fed with added oleic acid
[2] = measured here: lipid fluorescence (Fed channel) AC50, cells fed with added oleic acid

Row | SMILES | cell number change | AC50 [1] | AC50 [2]
1 | c1ccc2c(Nc3ccc(N4CCOCC4)cc3)nc(N3CCOCC3)nc2c1 | -19.3% |  | 
2 | COC(=O)CNC(c1ccccc1)c1cc(C)ccc1NS(=O)(=O)c1ccc(C)cc1 (centres undefined) |  | 0.517 µM [rising, partial curve, poor fit] | 1.84 µM [rising, partial curve]
3 | O=C(c1ccccn1)c1cc2ccccc2n1S(=O)(=O)c1ccccc1 | 12.2% |  | 6.51 µM [rising, single point]
4 | COc1ccc(CN(C)C(=O)COC(=O)c2ccc3c(c2)OCO3)cc1OC | -2.92% |  | 16.4 µM [falling, single point]
5 | Cc1ccc2nc(-c3cccc(Br)c3)cc(C(=O)Nn3cnnc3)c2c1 | -3.38% |  | 
6 | Cc1cccc(C(=O)Oc2ccc(/C=N/NC(=O)Cc3ccc([N+](=O)[O-])cc3)cc2)c1 | 125% | 18.4 µM [rising, partial curve] | 0.517 µM [rising, full curve]
7 | COc1ccccc1NC(=S)Nc1ccc2cn[nH]c2c1 | -46.5% | 18.4 µM [falling, partial curve, poor fit] | 20.6 µM [falling, single point]
8 | CC1(c2ccccc2Cl)NC(=O)N(CC(=O)c2ccc3c(c2)OCO3)C1=O (centres undefined) | 48.6% | 29.1 µM [rising, single point] | 
9 | COc1ccc(OC)c(NC(=O)CN2C(=O)NC3(CCOc4ccccc43)C2=O)c1 (centres undefined) | 23.9% |  | 23.1 µM [rising, partial curve]
10 | COc1cccc(C(=O)CSc2nnc(-c3cc(OC)cc(OC)c3)o2)c1 | 2.32% |  | 20.6 µM [falling, single point]
11 | O=C(CN(c1ccccc1)S(=O)(=O)c1ccc(Cl)cc1)Nc1cccnc1 | 5.26% | 4.61 µM [rising, partial curve, poor fit] | 
12 | O=S(=O)(Nc1ccc2c(c1)OCCO2)c1cccc(F)c1 | 12.6% |  | 29.1 µM [rising, single point]
13 | C=C(C)CNC(=S)NNC(=O)CCn1c2ccc(Cl)cc2c2cc(Cl)ccc21 | -49.9% | 29.1 µM [falling, single point] | 29.1 µM [falling, single point]
14 | Cc1ccc(CNC(=O)CCc2nc(-c3cccs3)no2)cc1 | 5.89% |  | 2.91 µM [rising, single point]
15 | Cc1ccccc1C(=O)N1CCC(C(=O)N2CCCc3ccccc32)CC1 |  |  | 0.731 µM [rising, partial curve]
16 | NC1=NC(=Nc2ccc(Cl)cc2)c2ccccc21 | 57.6% | 29.1 µM [rising, single point] | 14.6 µM [rising, single point]
17 | Cc1cnc(NC(=O)c2c(Cl)cnn2C)s1 | 49.2% | 11.6 µM [rising, partial curve, poor fit] | 8.2 µM [rising, partial curve]
18 | Cc1nc2ccc(NC(=O)c3c(-c4ccccc4)noc3C)cc2s1 | 7.56% |  | 3.66 µM [rising, full curve, poor fit]
19 | COc1ccc(N2CCN(C(=O)c3cc([N+](=O)[O-])ccc3N3CCN(CCO)CC3)CC2)cc1 | 9.68% |  | 23.1 µM [rising, single point]

Quoted from above: nos. 10 to 11
Row | SMILES | cell number change | AC50 [1] | AC50 [2]
10 | COc1cccc(C(=O)CSc2nnc(-c3cc(OC)cc(OC)c3)o2)c1 | 2.32% |  | 20.6 µM [falling, single point]
11 | O=C(CN(c1ccccc1)S(=O)(=O)c1ccc(Cl)cc1)Nc1cccnc1 | 5.26% | 4.61 µM [rising, partial curve, poor fit] | 

(further entries)

Row | SMILES | cell number change | AC50 [1] | AC50 [2]
20 | O=S(=O)(Nc1n[nH]c(C(F)(F)F)n1)c1ccccc1 | 1.49% |  | 0.116 µM [rising, full curve, poor fit]
21 | O=c1c2c3nc4ccccc4nc3n(CC3CCCO3)c2ncn1CCc1ccccc1 (centres undefined) | -6.43% |  | 4.11 µM [rising, single point]
22 | O=C(O)c1ccc(NCc2cccnc2)c([N+](=O)[O-])c1 | 30.1% | 32.6 µM [rising, single point] | 
23 | CN(CC(=O)OCC(=O)Nc1ccccc1)S(=O)(=O)c1ccc(Cl)cc1 | -19.8% |  | 23.1 µM [falling, single point]
24 | O=C1c2ccccc2NC(c2ccc(-c3cccs3)o2)N1O (centres undefined) | -6.78% |  | 1.16 µM [rising, partial curve, poor fit]
25 | CC(C)OC(=O)CSc1nnc(-c2ccc(O)cc2)n1Cc1ccccc1 | 29.7% |  | 
26 | Cc1cc(C)cc(C(=O)N[C@@H](C)C(=O)N2CCC3(CC2)NCCc2[nH]cnc23)c1 |  |  | 0.116 µM [rising, single point]
27 | N#Cc1nc(Cc2cccc3ccccc23)oc1N1CCN(c2ccccc2)CC1 | 24.3% | 0.58 µM [rising, full curve] | 
28 | C/C(=N\NC(=O)c1c(C)nc2ccccn12)c1cccc([N+](=O)[O-])c1 | 21.6% |  | 0.146 µM [rising, full curve, poor fit]
29 | COc1ccc(S(=O)(=O)N(CC(=O)NCCCN(C)C)c2ccc(C)cc2)cc1OC | -7.37% |  | 
30 | COC(C(=O)Nc1ccnn1C1CCN(Cc2ccc(Cl)s2)CC1)c1ccccc1 (centres undefined) | -20.2% |  | 
31 | C=CCOc1nc2c(c(=O)n(C)c(=O)n2C)n1Cc1ccc(Cl)cc1 | -32.3% | 9.2 µM [falling, partial curve, poor fit] | 13 µM [falling, partial curve]
32 | COc1ccc2c(C)nc(Nc3nc(-c4ccccc4)cc(=O)[nH]3)nc2c1 | -61.6% | 5.17 µM [falling, full curve] | 4.61 µM [falling, full curve]
33 | OC(CNCCCCNCC(O)C(F)(F)F)C(F)(F)F (centres undefined) | 23.2% |  | 3.55 µM [rising, partial curve]
34 | COc1ccc(C(=O)NCc2nnc(SCC(=O)NC3CCCC3)o2)cc1 | -5.77% |  | 7.31 µM [rising, partial curve]
35 | Cc1cc(C)c(C)c(OCC(=O)N2CCOCC2)c1 | 66.9% | 23.1 µM [rising, single point] | 
36 | Cc1ccc(C(=O)NNC(=S)Nc2cccc(Cl)c2Cl)cc1[N+](=O)[O-] | 46.9% | 0.116 µM [rising, full curve] | 
37 | CC(=O)Oc1ccccc1C(=O)N1CCN(S(=O)(=O)c2ccc3ccccc3c2)CC1 | 29% |  | 0.82 µM [rising, full curve]
